Laboratory results: paper PMC3936769
No constants are given. Whether binding was seen depends on the method and setting. In cells and extracts the contact can be indirect. A yes stands for co-enrichment or nearness to the bait. Other partners may have been found. Where a sequence is shown, tags or fusion partners need not be part of it.

Target: T1, aIF2-γHis, His-tagged aIF2-γ expressed in Sulfolobus solfataricus (Sulfolobus solfataricus) (UniProt Q980A5)
T1 sequence: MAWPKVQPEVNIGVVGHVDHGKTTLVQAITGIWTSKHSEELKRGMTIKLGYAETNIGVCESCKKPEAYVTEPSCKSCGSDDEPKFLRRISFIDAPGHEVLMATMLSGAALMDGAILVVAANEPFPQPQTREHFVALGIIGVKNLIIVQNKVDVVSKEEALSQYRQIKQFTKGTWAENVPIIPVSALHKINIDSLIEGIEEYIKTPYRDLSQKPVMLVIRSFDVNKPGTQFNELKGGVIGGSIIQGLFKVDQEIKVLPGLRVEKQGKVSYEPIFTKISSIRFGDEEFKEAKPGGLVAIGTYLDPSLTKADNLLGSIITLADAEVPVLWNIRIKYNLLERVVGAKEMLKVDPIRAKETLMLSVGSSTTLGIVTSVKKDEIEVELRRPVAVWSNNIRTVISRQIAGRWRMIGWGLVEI
Assay: affinity purification with mass spectrometry; aIF2-γHis captured by Ni-affinity chromatography from extracts of Sso PH1-16(pMJ05-γHis) after prolonged stationary phase and 3 h after outgrowth; buffer A (50 mM Tris-HCl pH 8.0, 300 mM NaCl, 15 mM imidazole, 10 mM β-mercaptoethanol), elution with 250 mM imidazole; Coomassie-stained gel, Sso2509 band identified by mass spectrometry; mock purification from PH1-16(pMJ05)

B1: aIF2-α, endogenous (protein, UniProt Q97Z79 1-266)
chain: MIYSRSKLPSEGEILIATVKQVFDYGSYVSLDEYGGLQAFLPWSEVSSKWVKNIRDVLKENRKVIVKVIRVDRRKGTVDVSLKKVTDDERRKKNLQWKKIQRLDKILELVSQKLKLSEKDAWEQVAWKLEAKYGDPITAIEKAVKEGEKILIDAGVPEIWVKPLLEEASKHAEERKVKMSGLITVRTNEPLGVEKIKEVISKALENIEQDYESLLNIKIYTIGAPRYRVDVVGTNPKEASEALNQIISNLIKIGKEENVDISVVKK
  binding: binds
